Data from publication PMC9460513, “The 5′-phosphate enhances the DNA-binding and exonuclease activities of human mitochondrial genome maintenance exonuclease 1 (MGME1)”.
The exact form of at least one protein or probe is not confirmed. A weaker result is weaker than the reference pair of the same experiment. Tags and fusion partners may be left off the protein sequences shown.

Biological target: T1, MGME1 (Homo sapiens) (UniProt Q9BQP7)
T1 sequence (looked up, limits assumed): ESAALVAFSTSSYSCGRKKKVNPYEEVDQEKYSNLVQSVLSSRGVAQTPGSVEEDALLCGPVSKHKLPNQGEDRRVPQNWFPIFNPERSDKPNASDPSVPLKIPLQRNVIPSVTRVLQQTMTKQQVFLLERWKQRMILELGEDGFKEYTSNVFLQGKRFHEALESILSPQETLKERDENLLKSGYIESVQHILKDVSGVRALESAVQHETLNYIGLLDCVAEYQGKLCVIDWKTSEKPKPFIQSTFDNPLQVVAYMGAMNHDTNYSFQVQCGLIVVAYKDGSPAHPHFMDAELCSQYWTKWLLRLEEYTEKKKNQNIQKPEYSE
Assay: EMSA
Details: 10 mM EDTA, EMSA: 1 uM ssDNA, 20 mM Hepes pH 8.0, 100 mM NaCl, 1 mM DTT, room temperature 15 min, gel 0.35x TBE at 4 C, recombinant protein, protein details: His-SUMO tag removed by Ulp1, label: 3'-6FAM, single-stranded DNA

Sequence	binding result (higher MGME1 needed for detectable complex)	binding result (lower complex yield than T20(5'))
TTTTTTTTTT [T10(3')]	binds more weakly	
TTTTTTTTTTTTTTTTTTTT [T20(3')]		binds more weakly
